Data: doi:10.1101/2024.06.27.601040 (bioRxiv, 2024)
These are yes or no findings as the source states them, for the method shown. In cells and extracts the contact can be indirect. Some binding calls cover weakened binding; strength is not graded here.

By UniProt entry, the sequences of proteins in these tests, tags left out.
UniProt Q14764: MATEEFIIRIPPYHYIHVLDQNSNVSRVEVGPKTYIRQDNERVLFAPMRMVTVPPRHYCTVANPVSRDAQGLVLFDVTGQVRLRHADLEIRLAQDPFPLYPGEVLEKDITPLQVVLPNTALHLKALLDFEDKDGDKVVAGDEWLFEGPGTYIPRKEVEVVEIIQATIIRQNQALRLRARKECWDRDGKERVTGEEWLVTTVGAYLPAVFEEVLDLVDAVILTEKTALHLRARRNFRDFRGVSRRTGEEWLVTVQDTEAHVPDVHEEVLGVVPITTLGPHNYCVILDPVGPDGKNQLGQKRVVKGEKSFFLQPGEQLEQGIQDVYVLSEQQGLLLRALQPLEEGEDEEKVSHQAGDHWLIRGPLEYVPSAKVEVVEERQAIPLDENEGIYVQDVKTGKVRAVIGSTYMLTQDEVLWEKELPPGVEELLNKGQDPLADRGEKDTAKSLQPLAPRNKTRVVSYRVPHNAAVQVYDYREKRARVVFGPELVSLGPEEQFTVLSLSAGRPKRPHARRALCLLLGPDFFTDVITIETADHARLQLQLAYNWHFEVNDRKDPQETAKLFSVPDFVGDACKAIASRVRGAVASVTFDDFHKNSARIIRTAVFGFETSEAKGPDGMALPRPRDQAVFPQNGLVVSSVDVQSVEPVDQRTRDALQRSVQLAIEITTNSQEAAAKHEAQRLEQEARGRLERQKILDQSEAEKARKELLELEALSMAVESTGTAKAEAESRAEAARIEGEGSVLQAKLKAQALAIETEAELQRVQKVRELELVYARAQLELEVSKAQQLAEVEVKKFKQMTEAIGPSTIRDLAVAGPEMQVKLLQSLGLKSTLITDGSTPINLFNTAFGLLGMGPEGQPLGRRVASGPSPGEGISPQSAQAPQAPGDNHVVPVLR
UniProt Q9UKK3: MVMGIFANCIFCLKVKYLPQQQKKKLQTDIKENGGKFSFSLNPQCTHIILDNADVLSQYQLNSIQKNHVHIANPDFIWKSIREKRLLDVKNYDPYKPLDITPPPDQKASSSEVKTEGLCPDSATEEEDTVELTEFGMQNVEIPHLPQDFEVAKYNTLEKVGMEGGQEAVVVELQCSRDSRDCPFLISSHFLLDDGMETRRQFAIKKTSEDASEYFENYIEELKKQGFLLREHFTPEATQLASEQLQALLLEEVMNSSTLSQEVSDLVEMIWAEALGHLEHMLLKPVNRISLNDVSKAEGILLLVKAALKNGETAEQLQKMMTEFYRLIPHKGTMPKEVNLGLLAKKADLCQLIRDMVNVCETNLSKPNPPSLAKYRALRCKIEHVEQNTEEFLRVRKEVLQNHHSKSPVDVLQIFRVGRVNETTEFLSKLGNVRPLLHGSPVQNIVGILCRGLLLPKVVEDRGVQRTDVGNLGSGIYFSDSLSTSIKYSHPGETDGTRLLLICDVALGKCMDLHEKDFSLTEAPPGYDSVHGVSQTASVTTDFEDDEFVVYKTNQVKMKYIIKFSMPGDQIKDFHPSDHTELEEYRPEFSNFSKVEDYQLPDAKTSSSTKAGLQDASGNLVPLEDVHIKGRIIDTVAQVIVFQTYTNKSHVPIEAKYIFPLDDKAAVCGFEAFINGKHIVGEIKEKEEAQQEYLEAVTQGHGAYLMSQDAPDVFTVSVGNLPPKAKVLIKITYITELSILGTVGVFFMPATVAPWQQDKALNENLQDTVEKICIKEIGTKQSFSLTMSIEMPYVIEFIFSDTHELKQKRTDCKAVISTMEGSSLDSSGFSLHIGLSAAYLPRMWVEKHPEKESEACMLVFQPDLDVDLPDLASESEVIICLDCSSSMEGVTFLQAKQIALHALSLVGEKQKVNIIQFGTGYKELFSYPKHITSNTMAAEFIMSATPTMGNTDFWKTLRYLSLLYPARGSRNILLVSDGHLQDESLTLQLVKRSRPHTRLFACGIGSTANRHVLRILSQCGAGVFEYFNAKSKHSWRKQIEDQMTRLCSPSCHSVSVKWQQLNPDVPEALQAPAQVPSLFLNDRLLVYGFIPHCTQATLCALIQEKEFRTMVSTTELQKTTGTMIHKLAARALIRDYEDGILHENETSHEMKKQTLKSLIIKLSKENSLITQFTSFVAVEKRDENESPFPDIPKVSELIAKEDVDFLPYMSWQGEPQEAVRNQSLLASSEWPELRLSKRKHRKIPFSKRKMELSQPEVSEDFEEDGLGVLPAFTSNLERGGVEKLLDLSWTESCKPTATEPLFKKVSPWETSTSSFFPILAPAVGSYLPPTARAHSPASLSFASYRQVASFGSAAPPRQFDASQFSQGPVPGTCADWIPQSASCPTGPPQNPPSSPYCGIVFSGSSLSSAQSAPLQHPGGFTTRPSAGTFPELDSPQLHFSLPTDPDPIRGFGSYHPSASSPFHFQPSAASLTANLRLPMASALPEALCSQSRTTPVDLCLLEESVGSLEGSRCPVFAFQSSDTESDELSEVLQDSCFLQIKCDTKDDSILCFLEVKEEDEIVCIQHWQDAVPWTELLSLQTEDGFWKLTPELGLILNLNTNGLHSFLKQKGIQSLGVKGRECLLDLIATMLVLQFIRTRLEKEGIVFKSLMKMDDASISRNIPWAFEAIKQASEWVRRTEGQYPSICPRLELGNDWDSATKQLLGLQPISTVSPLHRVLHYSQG

Biological target: endogenous MVP (native vault) of A549 cells (human (endogenous in A549)) (UniProt Q14764)
Experiment: co-IP

endogenous PARP4 of A549 cells (from UniProt Q9UKK3 1-1724) (enzyme)
binding: binds
